Experiment [1] addresses HA-tagged OTUD3, full length, wild type (human) (UniProt Q5T2D3). In words: affinity purification with mass spectrometry; tagged bait transfected into CRC cells (Flag-YY1 in SW480; HA-OTUD3 in DLD1), immunoprecipitation with anti-Flag or anti-HA magnetic beads, Coomassie staining, LC-MS/MS.
Experiment [2] has as its target Flag-tagged YY1 (Yin Yang 1), full length, wild type (UniProt P25490). The description is as above.

Amino acid sequences for entries named in this document (tags omitted).
UniProt Q5T2D3: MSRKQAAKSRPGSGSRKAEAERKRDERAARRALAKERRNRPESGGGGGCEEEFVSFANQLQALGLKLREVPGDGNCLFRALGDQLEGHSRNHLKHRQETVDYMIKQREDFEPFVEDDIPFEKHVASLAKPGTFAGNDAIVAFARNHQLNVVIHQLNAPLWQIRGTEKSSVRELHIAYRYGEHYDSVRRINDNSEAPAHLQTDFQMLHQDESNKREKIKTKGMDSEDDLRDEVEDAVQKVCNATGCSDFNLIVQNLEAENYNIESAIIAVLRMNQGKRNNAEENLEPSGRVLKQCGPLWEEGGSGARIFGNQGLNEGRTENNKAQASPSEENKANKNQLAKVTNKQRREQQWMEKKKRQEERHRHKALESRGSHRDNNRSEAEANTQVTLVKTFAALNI
UniProt P25490: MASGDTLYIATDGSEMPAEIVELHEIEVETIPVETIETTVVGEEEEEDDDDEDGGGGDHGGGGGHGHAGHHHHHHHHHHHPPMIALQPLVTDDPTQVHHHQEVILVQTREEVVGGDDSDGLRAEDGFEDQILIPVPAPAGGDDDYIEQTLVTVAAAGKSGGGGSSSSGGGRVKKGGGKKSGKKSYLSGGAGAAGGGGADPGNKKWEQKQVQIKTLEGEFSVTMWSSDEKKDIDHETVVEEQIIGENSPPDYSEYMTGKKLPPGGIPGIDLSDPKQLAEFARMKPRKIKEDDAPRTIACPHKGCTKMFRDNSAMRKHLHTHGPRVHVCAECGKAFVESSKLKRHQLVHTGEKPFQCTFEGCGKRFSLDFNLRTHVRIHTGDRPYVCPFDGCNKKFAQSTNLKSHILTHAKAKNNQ
UniProt P53350: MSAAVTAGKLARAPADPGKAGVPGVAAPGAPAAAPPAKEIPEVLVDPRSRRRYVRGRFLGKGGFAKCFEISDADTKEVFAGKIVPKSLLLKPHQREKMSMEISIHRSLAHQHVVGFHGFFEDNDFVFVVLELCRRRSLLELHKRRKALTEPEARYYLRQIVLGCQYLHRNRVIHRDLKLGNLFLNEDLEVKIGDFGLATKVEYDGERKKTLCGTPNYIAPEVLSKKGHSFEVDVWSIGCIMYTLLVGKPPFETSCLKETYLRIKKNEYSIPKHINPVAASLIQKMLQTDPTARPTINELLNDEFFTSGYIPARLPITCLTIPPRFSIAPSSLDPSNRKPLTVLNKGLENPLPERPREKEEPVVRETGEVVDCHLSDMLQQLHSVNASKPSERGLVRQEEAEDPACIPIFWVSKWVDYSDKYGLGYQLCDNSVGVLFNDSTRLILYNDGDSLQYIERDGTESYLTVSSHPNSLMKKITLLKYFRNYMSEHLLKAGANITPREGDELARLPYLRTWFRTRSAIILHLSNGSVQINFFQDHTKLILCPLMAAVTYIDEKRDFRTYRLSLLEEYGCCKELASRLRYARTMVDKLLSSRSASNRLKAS

Results are given in words; binding and its absence hold for the method and conditions named. Binding seen in cells or lysates may run through a third protein. Here binding means that the protein was enriched with, or labelled near, the bait; the list need not be complete.

As to “endogenous Polo-like kinase 1 (PLK1) (from UniProt P53350 1-603) (enzyme)”, the binding entry in experiment [1] is listed as “binds”.
Regarding “endogenous OTUD3 (from UniProt Q5T2D3 1-398) (enzyme)”, in experiment [2], the binding entry is “binds”.

For the origin of these results see publication PMC10864350, “Phosphorylation-dependent deubiquitinase OTUD3 regulates YY1 stability and promotes colorectal cancer progression” (Cell Death & Disease, 2024).
